Laboratory results reported in patent US20250145665A1, “MACROCYCLIC PEPTIDES USEFUL AS MODULATORS OF TNF ALPHA” (Bristol-Myers Squibb Company, priority 2023, published 2025).
pIC50: −log10 of the molar value. Some results were stated once for a whole list of compounds, not compound by compound. Positions of bridges follow the written chain, without caps; N, C: chain ends. Non-standard residues stand in square brackets, D forms with d. Residues, ends and D or L forms follow the SMILES beside them. Bip(4'-COOH) = N[C@@H](Cc1ccc(-c2ccc(C(=O)O)cc2)cc1)C(=O)O; Bip(4'-NHAc) = CC(=O)Nc1ccc(-c2ccc(C[C@H](N)C(=O)O)cc2)cc1; Phe(4-CF3) = N[C@@H](Cc1ccc(C(F)(F)F)cc1)C(=O)O; Ala(morpholin-4-yl) = N[C@@H](CN1CCOCC1)C(=O)O; Phe(3-CONH2) = NC(=O)c1cccc(C[C@H](N)C(=O)O)c1; Phe(4-CONH2) = NC(=O)c1ccc(C[C@H](N)C(=O)O)cc1; Phe(4-CH2NH2) = NCc1ccc(C[C@H](N)C(=O)O)cc1; Bip = N[C@@H](Cc1ccc(-c2ccccc2)cc1)C(=O)O; Phe(4-Me) = Cc1ccc(C[C@H](N)C(=O)O)cc1; Bta = N[C@@H](Cc1csc2ccccc12)C(=O)O; Val(3-OH) = CC(C)(O)[C@H](N)C(=O)O; h4Pal = N[C@@H](CCc1ccncc1)C(=O)O; hArg = N=C(N)NCCCC[C@H](N)C(=O)O; hPhe = N[C@@H](CCc1ccccc1)C(=O)O; Tic = O=C(O)[C@@H]1Cc2ccccc2CN1; Aze = O=C(O)[C@@H]1CCN1; Abu = CC[C@H](N)C(=O)O; Sar = CNCC(=O)O

Sequences of proteins named here, by UniProt entry; tags and fusion partners are left off. Residues count along the entry.
UniProt P01375, 77-233 limits assumed: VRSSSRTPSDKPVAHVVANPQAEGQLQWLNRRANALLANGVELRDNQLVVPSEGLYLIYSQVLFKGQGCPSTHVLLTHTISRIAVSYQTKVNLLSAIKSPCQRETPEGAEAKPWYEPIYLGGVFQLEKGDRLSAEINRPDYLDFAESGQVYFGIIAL

Each compound was assayed against TNFα (Homo sapiens, UniProt P01375) (assay: TNF-Induced HEK-Blue Assay). Conditions: summary statement for all examples; read-out: IC50 values measured in the TNF induced HEK-Blue assay.
Assay type: cell-based

pIC50, ≥ 4.60:
CC(C)C[C@@H]1NC(=O)[C@H](Cc2ccc(O)cc2)NC(=O)[C@H](C(C)C)NC(=O)[C@@H]2Cc3ccccc3CN2C(=O)[C@H](CC(N)=O)NC(=O)[C@@H](CCCNC(=N)N)NC(=O)[C@H](CC(=O)O)NC(=O)[C@H](Cc2ccc(O)cc2)NC(=O)CN(C)C(=O)[C@H](Cc2ccc(-c3ccccc3)cc2)NC(=O)[C@H](Cc2ccc(-c3ccc(C(=O)O)cc3)cc2)NC(=O)[C@H](CN2CCOCC2)NC(=O)CSC[C@@H](C(=O)NCC(N)=O)NC1=O [Example 146] ({CH2CO}-[Ala(morpholin-4-yl)][Bip(4'-COOH)][Bip][Sar]YD[dR]N[Tic]VYLCG-NH2; thioether N-13)
CC(C)C[C@@H]1NC(=O)[C@H](Cc2ccc(O)cc2)NC(=O)[C@H](C(C)C)NC(=O)[C@@H]2CCN2C(=O)[C@H](C(C)C)NC(=O)[C@@H](CCCNC(=N)N)NC(=O)[C@H](CC(=O)O)NC(=O)[C@H](Cc2ccc(O)cc2)NC(=O)CN(C)C(=O)[C@H](Cc2ccc(-c3ccccc3)cc2)NC(=O)[C@H](Cc2ccc(-c3ccc(C(=O)O)cc3)cc2)NC(=O)[C@H](CN2CCOCC2)NC(=O)CSC[C@@H](C(=O)NCC(N)=O)NC1=O [Example 147] ({CH2CO}-[Ala(morpholin-4-yl)][Bip(4'-COOH)][Bip][Sar]YD[dR]V[Aze]VYLCG-NH2; thioether N-13)
CC(C)C[C@@H]1NC(=O)[C@H](Cc2ccc(O)cc2)NC(=O)[C@H](C(C)C)NC(=O)[C@@H]2Cc3ccccc3CN2C(=O)[C@H](C(C)C)NC(=O)[C@@H](CCCNC(=N)N)NC(=O)[C@H](CC(=O)O)NC(=O)[C@H](Cc2ccc(O)cc2)NC(=O)CN(C)C(=O)[C@H](Cc2ccc(-c3ccccc3)cc2)NC(=O)[C@H](Cc2ccc(-c3ccc(C(=O)O)cc3)cc2)NC(=O)[C@H](CN2CCOCC2)NC(=O)CSC[C@@H](C(=O)NCC(N)=O)NC1=O [Example 148] ({CH2CO}-[Ala(morpholin-4-yl)][Bip(4'-COOH)][Bip][Sar]YD[dR]V[Tic]VYLCG-NH2; thioether N-13)
CC(C)C[C@@H]1NC(=O)[C@H](Cc2ccc(O)cc2)NC(=O)[C@H](CC(C)C)NC(=O)[C@@H]2CCCN2C(=O)[C@H](C(C)C)NC(=O)[C@@H](CCCNC(=N)N)NC(=O)[C@H](CC(=O)O)NC(=O)[C@H](Cc2ccc(O)cc2)NC(=O)CN(C)C(=O)[C@H](Cc2ccc(-c3ccccc3)cc2)NC(=O)[C@H](Cc2ccc(-c3ccccc3)cc2)NC(=O)[C@H](CN2CCOCC2)NC(=O)CSC[C@@H](C(=O)NCC(N)=O)NC1=O [Example 149] ({CH2CO}-[Ala(morpholin-4-yl)][Bip][Bip][Sar]YD[dR]VPLYLCG-NH2; thioether N-13)
CC(C)C[C@@H]1NC(=O)[C@H](Cc2ccc(CN)cc2)NC(=O)[C@H](C(C)C)NC(=O)[C@@H]2CCCN2C(=O)[C@H](C(C)C)NC(=O)[C@@H](CCCNC(=N)N)NC(=O)[C@H](CC(=O)O)NC(=O)[C@H](Cc2ccc(O)cc2)NC(=O)CN(C)C(=O)[C@H](Cc2ccc(-c3ccccc3)cc2)NC(=O)[C@H](Cc2ccc(-c3ccccc3)cc2)NC(=O)[C@H](CN2CCOCC2)NC(=O)CSC[C@@H](C(=O)NCC(N)=O)NC1=O [Example 150] ({CH2CO}-[Ala(morpholin-4-yl)][Bip][Bip][Sar]YD[dR]VPV[Phe(4-CH2NH2)]LCG-NH2; thioether N-13)
CC(C)C[C@@H]1NC(=O)[C@H](Cc2ccc(C(N)=O)cc2)NC(=O)[C@H](C(C)C)NC(=O)[C@@H]2CCCN2C(=O)[C@H](C(C)C)NC(=O)[C@@H](CCCNC(=N)N)NC(=O)[C@H](CC(=O)O)NC(=O)[C@H](Cc2ccc(O)cc2)NC(=O)CN(C)C(=O)[C@H](Cc2ccc(-c3ccccc3)cc2)NC(=O)[C@H](Cc2ccc(-c3ccccc3)cc2)NC(=O)[C@H](CN2CCOCC2)NC(=O)CSC[C@@H](C(=O)NCC(N)=O)NC1=O [Example 151] ({CH2CO}-[Ala(morpholin-4-yl)][Bip][Bip][Sar]YD[dR]VPV[Phe(4-CONH2)]LCG-NH2; thioether N-13)
Cc1ccc(C[C@@H]2NC(=O)[C@H](C(C)C)NC(=O)[C@@H]3CCCN3C(=O)[C@H](C(C)C)NC(=O)[C@@H](CCCNC(=N)N)NC(=O)[C@H](CC(=O)O)NC(=O)[C@H](Cc3ccc(O)cc3)NC(=O)CN(C)C(=O)[C@H](Cc3ccc(-c4ccccc4)cc3)NC(=O)[C@H](Cc3ccc(-c4ccccc4)cc3)NC(=O)[C@H](CN3CCOCC3)NC(=O)CSC[C@@H](C(=O)NCC(N)=O)NC(=O)[C@H](CC(C)C)NC2=O)cc1 [Example 152] ({CH2CO}-[Ala(morpholin-4-yl)][Bip][Bip][Sar]YD[dR]VPV[Phe(4-Me)]LCG-NH2; thioether N-13)
CC(C)C[C@@H]1NC(=O)[C@H](CCc2ccccc2)NC(=O)[C@H](C(C)C)NC(=O)[C@@H]2CCCN2C(=O)[C@H](C(C)C)NC(=O)[C@@H](CCCNC(=N)N)NC(=O)[C@H](CC(=O)O)NC(=O)[C@H](Cc2ccc(O)cc2)NC(=O)CN(C)C(=O)[C@H](Cc2ccc(-c3ccccc3)cc2)NC(=O)[C@H](Cc2ccc(-c3ccccc3)cc2)NC(=O)[C@H](CN2CCOCC2)NC(=O)CSC[C@@H](C(=O)NCC(N)=O)NC1=O [Example 154] ({CH2CO}-[Ala(morpholin-4-yl)][Bip][Bip][Sar]YD[dR]VPV[hPhe]LCG-NH2; thioether N-13)
CC(C)C[C@@H]1NC(=O)[C@H](CCc2ccncc2)NC(=O)[C@H](C(C)C)NC(=O)[C@@H]2CCCN2C(=O)[C@H](C(C)C)NC(=O)[C@@H](CCCNC(=N)N)NC(=O)[C@H](CC(=O)O)NC(=O)[C@H](Cc2ccc(O)cc2)NC(=O)CN(C)C(=O)[C@H](Cc2ccc(-c3ccccc3)cc2)NC(=O)[C@H](Cc2ccc(-c3ccccc3)cc2)NC(=O)[C@H](CN2CCOCC2)NC(=O)CSC[C@@H](C(=O)NCC(N)=O)NC1=O [Example 155] ({CH2CO}-[Ala(morpholin-4-yl)][Bip][Bip][Sar]YD[dR]VPV[h4Pal]LCG-NH2; thioether N-13)
CC(C)C[C@@H]1NC(=O)[C@H](Cc2cccc(C(N)=O)c2)NC(=O)[C@H](C(C)C)NC(=O)[C@@H]2CCCN2C(=O)[C@H](C(C)C)NC(=O)[C@@H](CCCNC(=N)N)NC(=O)[C@H](CC(=O)O)NC(=O)[C@H](Cc2ccc(O)cc2)NC(=O)CN(C)C(=O)[C@H](Cc2ccc(-c3ccccc3)cc2)NC(=O)[C@H](Cc2ccc(-c3ccccc3)cc2)NC(=O)[C@H](CN2CCOCC2)NC(=O)CSC[C@@H](C(=O)NCC(N)=O)NC1=O [Example 156] ({CH2CO}-[Ala(morpholin-4-yl)][Bip][Bip][Sar]YD[dR]VPV[Phe(3-CONH2)]LCG-NH2; thioether N-13)
CC(C)C[C@@H]1NC(=O)[C@H](Cc2ccc(C(F)(F)F)cc2)NC(=O)[C@H](C(C)C)NC(=O)[C@@H]2CCCN2C(=O)[C@H](C(C)C)NC(=O)[C@@H](CCCNC(=N)N)NC(=O)[C@H](CC(=O)O)NC(=O)[C@H](Cc2ccc(O)cc2)NC(=O)CN(C)C(=O)[C@H](Cc2ccc(-c3ccccc3)cc2)NC(=O)[C@H](Cc2ccc(-c3ccccc3)cc2)NC(=O)[C@H](CN2CCOCC2)NC(=O)CSC[C@@H](C(=O)NCC(N)=O)NC1=O [Example 157] ({CH2CO}-[Ala(morpholin-4-yl)][Bip][Bip][Sar]YD[dR]VPV[Phe(4-CF3)]LCG-NH2; thioether N-13)
CC(C)C[C@@H]1NC(=O)[C@H](Cc2csc3ccccc23)NC(=O)[C@H](C(C)C)NC(=O)[C@@H]2CCCN2C(=O)[C@H](C(C)C)NC(=O)[C@@H](CCCNC(=N)N)NC(=O)[C@H](CC(=O)O)NC(=O)[C@H](Cc2ccc(O)cc2)NC(=O)CN(C)C(=O)[C@H](Cc2ccc(-c3ccccc3)cc2)NC(=O)[C@H](Cc2ccc(-c3ccccc3)cc2)NC(=O)[C@H](CN2CCOCC2)NC(=O)CSC[C@@H](C(=O)NCC(N)=O)NC1=O [Example 158] ({CH2CO}-[Ala(morpholin-4-yl)][Bip][Bip][Sar]YD[dR]VPV[Bta]LCG-NH2; thioether N-13)
CC(C)C[C@@H]1NC(=O)[C@H](CCCCNC(=N)N)NC(=O)[C@H](C(C)C)NC(=O)[C@@H]2CCCN2C(=O)[C@H](C(C)C)NC(=O)[C@@H](CCCNC(=N)N)NC(=O)[C@H](CC(=O)O)NC(=O)[C@H](Cc2ccc(O)cc2)NC(=O)CN(C)C(=O)[C@H](Cc2ccc(-c3ccccc3)cc2)NC(=O)[C@H](Cc2ccc(-c3ccccc3)cc2)NC(=O)[C@H](CN2CCOCC2)NC(=O)CSC[C@@H](C(=O)NCC(N)=O)NC1=O [Example 159] ({CH2CO}-[Ala(morpholin-4-yl)][Bip][Bip][Sar]YD[dR]VPV[hArg]LCG-NH2; thioether N-13)
CC(=O)Nc1ccc(-c2ccc(C[C@@H]3NC(=O)[C@H](Cc4ccc(-c5ccccc5)cc4)NC(=O)[C@H](CN4CCOCC4)NC(=O)CSC[C@@H](C(=O)NCC(N)=O)NC(=O)[C@H](CC(C)C)NC(=O)[C@H](CCCNC(=N)N)NC(=O)[C@H](C(C)(C)O)NC(=O)[C@@H]4CCCN4C(=O)[C@H](C(C)C)NC(=O)[C@@H](CCCNC(=N)N)NC(=O)[C@H](CC(=O)O)NC(=O)[C@@H]4CCCN4C(=O)CN(C)C3=O)cc2)cc1 [Example 160] ({CH2CO}-[Ala(morpholin-4-yl)][Bip][Bip(4'-NHAc)][Sar]PD[dR]VP[Val(3-OH)]RLCG-NH2; thioether N-13)
CC[C@@H]1NC(=O)[C@@H]2CCCN2C(=O)[C@H](C(C)C)NC(=O)[C@@H](CCCNC(=N)N)NC(=O)[C@H](CC(=O)O)NC(=O)[C@H](Cc2ccc(O)cc2)NC(=O)CN(C)C(=O)[C@H](Cc2ccc(-c3ccccc3)cc2)NC(=O)[C@H](Cc2ccc(-c3ccccc3)cc2)NC(=O)[C@H](CN2CCOCC2)NC(=O)CSC[C@@H](C(=O)NCC(N)=O)NC(=O)[C@H](CC(C)C)NC(=O)[C@H](Cc2ccc(O)cc2)NC1=O [Example 161] ({CH2CO}-[Ala(morpholin-4-yl)][Bip][Bip][Sar]YD[dR]VP[Abu]YLCG-NH2; thioether N-13)
CC(C)C[C@@H]1NC(=O)[C@H](Cc2ccc(O)cc2)NC(=O)[C@H](C)NC(=O)[C@@H]2CCCN2C(=O)[C@H](C(C)C)NC(=O)[C@@H](CCCNC(=N)N)NC(=O)[C@H](CC(=O)O)NC(=O)[C@H](Cc2ccc(O)cc2)NC(=O)CN(C)C(=O)[C@H](Cc2ccc(-c3ccccc3)cc2)NC(=O)[C@H](Cc2ccc(-c3ccccc3)cc2)NC(=O)[C@H](CN2CCOCC2)NC(=O)CSC[C@@H](C(=O)NCC(N)=O)NC1=O [Example 162] ({CH2CO}-[Ala(morpholin-4-yl)][Bip][Bip][Sar]YD[dR]VPAYLCG-NH2; thioether N-13)
